Laboratory results reported in PubChem BioAssay AID720504 (National Center for Advancing Translational Sciences (NCATS), 2013).
Hit rate of the full screen: of about 360,000 compounds, about 10,000 (2.8%) were called active. This list was built around the results that the source calls inconclusive (neither active nor inactive); the mix of calls is not that of the screen. The call rests on the fitted dose curve; in most records, active means well fitted inhibition curve with a large enough effect; inconclusive means small, poorly fitted or top-dose-only effect; inactive means flat fitted curve, though single readings scatter. Potencies beside an inconclusive call are fits to weak or partial responses and may not hold up.

Amino acid sequences for entries named in this document (tags omitted).
UniProt P53350, whole entry, looked up: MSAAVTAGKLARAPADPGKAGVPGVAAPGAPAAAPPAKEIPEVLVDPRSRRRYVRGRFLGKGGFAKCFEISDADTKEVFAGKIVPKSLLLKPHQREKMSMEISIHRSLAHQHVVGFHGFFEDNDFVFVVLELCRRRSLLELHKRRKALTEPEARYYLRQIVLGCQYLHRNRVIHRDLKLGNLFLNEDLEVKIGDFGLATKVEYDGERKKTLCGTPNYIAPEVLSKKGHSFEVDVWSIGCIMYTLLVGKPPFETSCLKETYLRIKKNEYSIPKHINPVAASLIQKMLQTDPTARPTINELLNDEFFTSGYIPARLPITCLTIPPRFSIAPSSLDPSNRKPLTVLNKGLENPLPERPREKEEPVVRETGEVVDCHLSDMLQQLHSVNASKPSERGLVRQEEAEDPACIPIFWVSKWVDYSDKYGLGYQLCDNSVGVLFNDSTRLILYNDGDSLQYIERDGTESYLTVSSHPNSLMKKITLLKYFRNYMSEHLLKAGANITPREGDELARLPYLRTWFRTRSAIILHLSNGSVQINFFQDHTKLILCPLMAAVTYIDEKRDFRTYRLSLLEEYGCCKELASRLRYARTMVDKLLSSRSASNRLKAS

biological target: Serine/threonine-protein kinase PLK1 (Homo sapiens) (UniProt P53350); test: qHTS for Inhibitors of PLK1-PDB (polo-like kinase 1 - polo-box domain): Primary Screen; settings: Plk1 PBD binding of FITC phosphopeptide, fluorescence polarization; further: nearly all actives have a fitted effect of over 65% in size; on max response, negative = inhibition: series mostly up to about 57 µM
On the % scale 0 is the no-effect control and ±100 the full control effect; potency means the concentration at half of the fitted maximal effect.

Row | SMILES | max response, negative = inhibition | Potency
1 | COC/C=C/C1=CC2=CC(=O)C(C)(OC(=O)c3cnc4ccccc4n3)C(=O)C2=CN1C(CO)CO (stereo not given) | inactive: -12.9% | –
2 | C=CCn1c(SCC(=O)NCCOC)nc2scc(-c3ccco3)c2c1=O | – | inconclusive: 37.7 µM [inhibitor, single point]
3 | Cc1ccnc(SCc2cc(=O)c(OC(=O)c3cc([N+](=O)[O-])ccc3Cl)co2)n1 | – | active: 23.8 µM
4 | COc1ccccc1-c1cn[nH]c(=S)n1 | – | inconclusive: 28.2 µM [inhibitor, partial curve]
5 | c1ccc(-c2nnc3sc(-c4csc5c4CCCC5)nn23)cc1 | – | active: 10.6 µM
6 | CN1Cc2sc(N)c(C#N)c2CC1(C)C | – | inconclusive: 18.9 µM [inhibitor, partial curve]
7 | CC(C)N1CSC(=S)N(Cc2ccccc2)C1 | – | inconclusive: 29.9 µM [inhibitor, single point]
8 | O=C(/C=C/c1ccccc1)Nn1c(-c2cccs2)nc2ccccc2c1=O | – | inconclusive: 8.44 µM [inhibitor, single point]
9 | Cc1cc(C)nc(NS(=O)(=O)c2ccc(NC(=O)CSc3ncn[nH]3)cc2)n1 | – | active: 26.7 µM
10 | Cc1ccc(NC(=O)c2sc3nc(CCl)[nH]c(=O)c3c2C)c(C)c1 | – | inconclusive: 29.9 µM [inhibitor, single point]
11 | CC1(C)Cc2c(c(N3CCOCC3)nc3sc(C(=O)Nc4cccc(Cl)c4)c(N)c23)CO1 | – | inconclusive: 29.9 µM [inhibitor, partial curve]
12 | CC(=O)Nc1sc(N/N=C/c2ccc(O)cc2)nc1-c1ccc(C)cc1 | – | inconclusive: 21.2 µM [inhibitor, partial curve]
13 | O=C(Nc1ccc(-c2nc3ccc(NC(=O)c4cccs4)cc3[nH]2)cc1)c1cccs1 | – | inconclusive: 29.9 µM [inhibitor, partial curve]
14 | COCc1cc(C)nc2sc(C(=O)NCCO)c(-n3cccc3)c12 | – | inconclusive: 29.9 µM [inhibitor, partial curve]
15 | N#Cc1c(NC(=O)C2CC(c3c(F)cccc3Cl)=NO2)sc2c1CCC2 (stereo not given) | – | inconclusive: 26.7 µM [inhibitor, single point]
16 | CC(=O)/C(C#N)=C1\NC(=O)C(Cc2ccccc2Cl)S1 (stereo not given) | – | inconclusive: 29.9 µM [inhibitor, partial curve]
17 | CC(=O)Nc1ccc(NC(=O)c2sc3nc4n(c(=O)c3c2C)CCCCC4)cc1 | inactive: -23.6% | –
18 | CC1=C/C(=N\OC(=O)/C=C/c2ccccc2)C(C)=CC1=O | – | inconclusive: 1.68 µM [inhibitor, full curve]
19 | COc1cc([N+](=O)[O-])cc(/C=C2/SC(=S)N(Cc3ccccc3)C2=O)c1O | – | active: 29.9 µM
20 | CC1CCN(C(c2cc3cc4c(cc3[nH]c2=O)OCO4)c2nnnn2CC2CCCO2)CC1 (stereo not given) | inconclusive: -33.2% [inhibitor] | –

Row | SMILES | max response, negative = inhibition | Potency
21 | CN(CC(O)COCc1ccc2c(c1)OCO2)C1CCCCC1 (stereo not given) | – | inconclusive: 29.9 µM [inhibitor, partial curve]
22 | O=C(/C=C/c1ccco1)Nc1scc(-c2ccccc2)c1C(=O)O | – | inconclusive: 37.7 µM [inhibitor, single point]
23 | Cc1ccc(N(CC(=O)NCCc2ccc(F)cc2)S(=O)(=O)c2ccc(Cl)c([N+](=O)[O-])c2)c(C)c1 | – | inconclusive: 16.8 µM [inhibitor, partial curve]
24 | C#CCOCCOCCOCCNc1nc(N2CCN(C(=O)CCCCCCCCCCNC(=O)[C@@H](CCC(=O)O)n3cc(CCCCCN)nn3)CC2)nc(N2CCN(C(=O)CCCCCCCCCCNC(=O)[C@H](CO)n3cc(CCCSC)nn3)CC2)n1 | – | inconclusive: 42.3 µM [inhibitor, partial curve]
25 | CCOC(=O)c1ccc(NC(=O)CN2CCN(c3ccccc3)CC2)cc1 | – | inconclusive: 26.7 µM [inhibitor, single point]
26 | COc1ccccc1NC(=O)c1nnn(Cc2ccccc2)c1NC(=O)C(F)(F)F | – | inconclusive: 23.8 µM [inhibitor, partial curve]
27 | COCn1c(=O)c2c(nc(SC3=NCCS3)n2Cc2ccccc2C)n(COC)c1=O | inactive: -6.08% | –
28 | Clc1ccc(Sc2cnc3ccccc3n2)cc1 | – | inconclusive: 18.9 µM [inhibitor, partial curve]
29 | COC(=O)N/N=C/c1cccc(OCCSc2ccc(Cl)cc2)c1 | – | inconclusive: 33.6 µM [inhibitor, partial curve]
30 | COc1cccc(NC(=S)NN2CCN(C)CC2)c1 | – | inconclusive: 23.8 µM [inhibitor, single point]
31 | O=S(=O)(O)c1ccc(O)c2cc(Nc3ccccc3)ccc12 | – | active: 4.74 µM
32 | Cc1oc(-c2ccccc2)nc1C(=O)OCC(=O)NC(=O)NCC(C)C | – | inconclusive: 23.8 µM [inhibitor, single point]
33 | CC(C)NC(=S)NN=C1CCC(c2ccccc2)CC1 (stereo not given) | – | inconclusive: 26.7 µM [inhibitor, single point]
34 | COc1ccc(NC(=O)Cc2ccccc2)cn1 | – | inconclusive: 18.9 µM [inhibitor, partial curve]
35 | Cc1ccc(-c2cn3cccnc3n2)cc1NC(=O)c1ccc(Br)o1 | inactive: -9.05% | –
36 | CSc1ccccc1Sc1cc(C(=O)O)c2ccccc2n1 | – | inconclusive: 21.2 µM [inhibitor, partial curve]
37 | Cc1ccc(N2C(=O)C3C(C2=O)N2CCCN2C3c2ccccc2)cc1C (stereo not given) | – | inconclusive: 18.9 µM [inhibitor, partial curve]
38 | Cc1ccc(C(=O)CCS(=O)(=O)c2ccc(Cl)cc2)cc1 | – | inconclusive: 1.5 µM [inhibitor, full curve]
39 | Cc1ccccc1NC(=S)N(CCN1CCOCC1)Cc1ccccc1F | – | inconclusive: 15 µM [inhibitor, partial curve]
40 | CN(Cc1ccccc1)C(=O)c1ccc(NC(=O)Cc2ccc(NC(=O)C3CCN(S(=O)(=O)c4cccc([N+](=O)[O-])c4)CC3)cc2)cc1 | – | inconclusive: 26.7 µM [inhibitor, single point]

12 compounds from above, ordered by SMILES length, smallest number first.
Row | SMILES | max response, negative = inhibition | Potency
4 | COc1ccccc1-c1cn[nH]c(=S)n1 | – | inconclusive: 28.2 µM [inhibitor, partial curve]
34 | COc1ccc(NC(=O)Cc2ccccc2)cn1 | – | inconclusive: 18.9 µM [inhibitor, partial curve]
7 | CC(C)N1CSC(=S)N(Cc2ccccc2)C1 | – | inconclusive: 29.9 µM [inhibitor, single point]
36 | CSc1ccccc1Sc1cc(C(=O)O)c2ccccc2n1 | – | inconclusive: 21.2 µM [inhibitor, partial curve]
29 | COC(=O)N/N=C/c1cccc(OCCSc2ccc(Cl)cc2)c1 | – | inconclusive: 33.6 µM [inhibitor, partial curve]
18 | CC1=C/C(=N\OC(=O)/C=C/c2ccccc2)C(C)=CC1=O | – | inconclusive: 1.68 µM [inhibitor, full curve]
35 | Cc1ccc(-c2cn3cccnc3n2)cc1NC(=O)c1ccc(Br)o1 | inactive: -9.05% | –
12 | CC(=O)Nc1sc(N/N=C/c2ccc(O)cc2)nc1-c1ccc(C)cc1 | – | inconclusive: 21.2 µM [inhibitor, partial curve]
15 | N#Cc1c(NC(=O)C2CC(c3c(F)cccc3Cl)=NO2)sc2c1CCC2 (stereo not given) | – | inconclusive: 26.7 µM [inhibitor, single point]
17 | CC(=O)Nc1ccc(NC(=O)c2sc3nc4n(c(=O)c3c2C)CCCCC4)cc1 | inactive: -23.6% | –
13 | O=C(Nc1ccc(-c2nc3ccc(NC(=O)c4cccs4)cc3[nH]2)cc1)c1cccs1 | – | inconclusive: 29.9 µM [inhibitor, partial curve]
3 | Cc1ccnc(SCc2cc(=O)c(OC(=O)c3cc([N+](=O)[O-])ccc3Cl)co2)n1 | – | active: 23.8 µM
